# Experimental data published in the supplement of paper PMC12819154, “High-throughput peptide-centric local stability assay extends protein–ligand identification to membrane proteins, tissues and bacteria” (Nature Structural & Molecular Biology, 2025).
# Sequences of proteins named here, by UniProt entry; tags and fusion partners are left off. A change or cut given only in a name is not applied to a line headed by its entry.
# UniProt P15407: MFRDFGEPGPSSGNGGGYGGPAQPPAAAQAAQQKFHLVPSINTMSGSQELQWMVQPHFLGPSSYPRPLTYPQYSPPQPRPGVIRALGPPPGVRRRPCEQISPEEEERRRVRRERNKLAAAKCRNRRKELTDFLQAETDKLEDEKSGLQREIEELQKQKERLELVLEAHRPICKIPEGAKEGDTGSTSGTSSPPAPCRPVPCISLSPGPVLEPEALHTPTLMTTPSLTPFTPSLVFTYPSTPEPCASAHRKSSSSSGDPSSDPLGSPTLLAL
# UniProt P18847: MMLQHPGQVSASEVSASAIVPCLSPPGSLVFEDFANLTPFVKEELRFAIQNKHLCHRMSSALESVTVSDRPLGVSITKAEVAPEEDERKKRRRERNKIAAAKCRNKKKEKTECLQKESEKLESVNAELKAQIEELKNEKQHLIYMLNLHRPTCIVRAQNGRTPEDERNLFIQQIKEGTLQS
# UniProt P18858, whole entry: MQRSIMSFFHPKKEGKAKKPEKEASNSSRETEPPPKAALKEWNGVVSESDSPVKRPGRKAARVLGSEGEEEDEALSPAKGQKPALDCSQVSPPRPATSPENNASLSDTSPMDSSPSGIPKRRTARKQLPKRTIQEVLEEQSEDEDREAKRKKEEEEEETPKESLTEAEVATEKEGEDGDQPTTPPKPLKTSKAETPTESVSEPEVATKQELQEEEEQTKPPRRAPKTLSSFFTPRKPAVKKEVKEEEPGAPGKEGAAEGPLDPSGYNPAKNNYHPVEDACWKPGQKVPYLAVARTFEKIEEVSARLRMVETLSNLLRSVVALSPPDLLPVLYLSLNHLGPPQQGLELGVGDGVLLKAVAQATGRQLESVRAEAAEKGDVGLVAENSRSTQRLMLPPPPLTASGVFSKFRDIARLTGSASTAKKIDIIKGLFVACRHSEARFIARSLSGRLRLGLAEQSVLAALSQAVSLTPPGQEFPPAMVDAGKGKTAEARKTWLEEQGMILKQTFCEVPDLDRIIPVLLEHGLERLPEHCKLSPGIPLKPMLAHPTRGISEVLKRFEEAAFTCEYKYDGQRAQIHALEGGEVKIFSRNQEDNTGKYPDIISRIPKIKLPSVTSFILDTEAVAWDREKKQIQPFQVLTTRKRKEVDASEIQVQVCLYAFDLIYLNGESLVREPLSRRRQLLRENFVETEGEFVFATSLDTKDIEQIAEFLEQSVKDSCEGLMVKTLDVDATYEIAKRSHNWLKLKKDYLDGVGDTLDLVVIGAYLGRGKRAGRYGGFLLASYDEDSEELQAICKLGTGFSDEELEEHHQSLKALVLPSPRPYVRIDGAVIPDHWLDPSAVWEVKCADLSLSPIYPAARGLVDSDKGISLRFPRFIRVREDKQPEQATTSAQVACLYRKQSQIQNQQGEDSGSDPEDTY
# UniProt P16157: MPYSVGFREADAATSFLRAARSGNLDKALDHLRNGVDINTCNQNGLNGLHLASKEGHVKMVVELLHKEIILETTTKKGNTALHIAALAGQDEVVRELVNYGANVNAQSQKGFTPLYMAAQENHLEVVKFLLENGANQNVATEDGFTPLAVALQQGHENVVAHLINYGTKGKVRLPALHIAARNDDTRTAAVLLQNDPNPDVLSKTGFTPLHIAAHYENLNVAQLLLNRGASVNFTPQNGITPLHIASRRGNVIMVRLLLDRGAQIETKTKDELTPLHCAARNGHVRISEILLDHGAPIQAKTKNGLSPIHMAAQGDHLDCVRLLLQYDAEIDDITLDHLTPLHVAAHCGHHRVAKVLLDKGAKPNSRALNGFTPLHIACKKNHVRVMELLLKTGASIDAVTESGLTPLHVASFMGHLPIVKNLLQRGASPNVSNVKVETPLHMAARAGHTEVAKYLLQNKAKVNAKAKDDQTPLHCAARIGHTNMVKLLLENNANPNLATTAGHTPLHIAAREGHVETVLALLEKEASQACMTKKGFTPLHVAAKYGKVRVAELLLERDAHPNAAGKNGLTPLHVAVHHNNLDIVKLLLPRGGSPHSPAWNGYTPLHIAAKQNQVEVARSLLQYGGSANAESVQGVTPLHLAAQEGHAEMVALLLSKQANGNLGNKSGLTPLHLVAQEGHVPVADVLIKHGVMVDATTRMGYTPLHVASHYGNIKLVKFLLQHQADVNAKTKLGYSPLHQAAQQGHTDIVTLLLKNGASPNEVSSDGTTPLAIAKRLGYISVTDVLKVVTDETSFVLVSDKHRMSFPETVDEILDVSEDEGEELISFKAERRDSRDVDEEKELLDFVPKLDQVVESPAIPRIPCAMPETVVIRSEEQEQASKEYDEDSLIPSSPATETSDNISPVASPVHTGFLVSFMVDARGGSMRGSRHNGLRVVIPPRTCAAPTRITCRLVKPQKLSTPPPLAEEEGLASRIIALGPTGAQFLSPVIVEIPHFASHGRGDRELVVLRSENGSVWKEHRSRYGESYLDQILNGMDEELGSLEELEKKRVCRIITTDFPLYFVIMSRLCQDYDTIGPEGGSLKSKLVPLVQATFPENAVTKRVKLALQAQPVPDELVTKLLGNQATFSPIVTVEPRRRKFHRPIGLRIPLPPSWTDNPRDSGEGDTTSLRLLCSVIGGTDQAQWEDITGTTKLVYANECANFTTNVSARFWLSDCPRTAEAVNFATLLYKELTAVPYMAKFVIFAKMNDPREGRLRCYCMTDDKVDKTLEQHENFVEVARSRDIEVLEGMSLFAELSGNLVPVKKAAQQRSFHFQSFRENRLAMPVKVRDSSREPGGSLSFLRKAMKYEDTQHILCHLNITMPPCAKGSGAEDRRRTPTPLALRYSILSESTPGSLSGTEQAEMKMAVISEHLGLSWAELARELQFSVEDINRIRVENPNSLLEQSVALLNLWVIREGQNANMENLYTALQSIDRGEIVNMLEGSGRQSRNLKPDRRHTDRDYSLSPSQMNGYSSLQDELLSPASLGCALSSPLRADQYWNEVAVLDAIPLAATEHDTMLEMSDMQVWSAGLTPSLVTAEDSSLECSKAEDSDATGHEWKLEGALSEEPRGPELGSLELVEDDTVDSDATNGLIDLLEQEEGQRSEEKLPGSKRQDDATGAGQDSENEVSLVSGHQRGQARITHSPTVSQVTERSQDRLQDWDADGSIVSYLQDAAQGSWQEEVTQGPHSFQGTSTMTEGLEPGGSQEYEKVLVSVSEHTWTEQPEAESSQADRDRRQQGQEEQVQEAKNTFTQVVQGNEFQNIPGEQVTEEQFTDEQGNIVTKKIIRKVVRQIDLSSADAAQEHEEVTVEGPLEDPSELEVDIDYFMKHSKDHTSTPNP
# UniProt P15884: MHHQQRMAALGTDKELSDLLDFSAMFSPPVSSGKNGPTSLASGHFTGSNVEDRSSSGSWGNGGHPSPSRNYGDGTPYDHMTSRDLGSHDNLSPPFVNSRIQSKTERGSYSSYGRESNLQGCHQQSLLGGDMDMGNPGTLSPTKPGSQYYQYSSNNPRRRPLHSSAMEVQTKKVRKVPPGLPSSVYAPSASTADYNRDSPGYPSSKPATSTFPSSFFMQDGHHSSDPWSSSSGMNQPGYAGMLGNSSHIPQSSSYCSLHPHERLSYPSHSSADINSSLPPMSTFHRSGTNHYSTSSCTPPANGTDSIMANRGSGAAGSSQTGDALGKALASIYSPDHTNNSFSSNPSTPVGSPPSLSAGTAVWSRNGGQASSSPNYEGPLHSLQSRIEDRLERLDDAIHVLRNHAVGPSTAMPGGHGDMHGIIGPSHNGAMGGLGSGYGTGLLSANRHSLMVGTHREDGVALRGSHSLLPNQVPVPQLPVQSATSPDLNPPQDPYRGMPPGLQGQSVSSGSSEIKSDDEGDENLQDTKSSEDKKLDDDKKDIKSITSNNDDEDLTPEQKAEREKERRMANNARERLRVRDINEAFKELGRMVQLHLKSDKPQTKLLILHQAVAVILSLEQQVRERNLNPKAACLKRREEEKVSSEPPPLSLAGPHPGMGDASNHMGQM
# UniProt P16220: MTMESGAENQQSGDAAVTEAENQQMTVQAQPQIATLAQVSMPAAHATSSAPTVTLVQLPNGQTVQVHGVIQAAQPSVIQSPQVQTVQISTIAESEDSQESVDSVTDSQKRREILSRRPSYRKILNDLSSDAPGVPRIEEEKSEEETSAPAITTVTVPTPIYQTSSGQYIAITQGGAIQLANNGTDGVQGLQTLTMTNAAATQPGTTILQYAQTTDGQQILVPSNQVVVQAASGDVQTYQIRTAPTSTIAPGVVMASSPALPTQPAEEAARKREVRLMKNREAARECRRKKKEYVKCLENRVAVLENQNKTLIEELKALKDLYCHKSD
# UniProt P22314: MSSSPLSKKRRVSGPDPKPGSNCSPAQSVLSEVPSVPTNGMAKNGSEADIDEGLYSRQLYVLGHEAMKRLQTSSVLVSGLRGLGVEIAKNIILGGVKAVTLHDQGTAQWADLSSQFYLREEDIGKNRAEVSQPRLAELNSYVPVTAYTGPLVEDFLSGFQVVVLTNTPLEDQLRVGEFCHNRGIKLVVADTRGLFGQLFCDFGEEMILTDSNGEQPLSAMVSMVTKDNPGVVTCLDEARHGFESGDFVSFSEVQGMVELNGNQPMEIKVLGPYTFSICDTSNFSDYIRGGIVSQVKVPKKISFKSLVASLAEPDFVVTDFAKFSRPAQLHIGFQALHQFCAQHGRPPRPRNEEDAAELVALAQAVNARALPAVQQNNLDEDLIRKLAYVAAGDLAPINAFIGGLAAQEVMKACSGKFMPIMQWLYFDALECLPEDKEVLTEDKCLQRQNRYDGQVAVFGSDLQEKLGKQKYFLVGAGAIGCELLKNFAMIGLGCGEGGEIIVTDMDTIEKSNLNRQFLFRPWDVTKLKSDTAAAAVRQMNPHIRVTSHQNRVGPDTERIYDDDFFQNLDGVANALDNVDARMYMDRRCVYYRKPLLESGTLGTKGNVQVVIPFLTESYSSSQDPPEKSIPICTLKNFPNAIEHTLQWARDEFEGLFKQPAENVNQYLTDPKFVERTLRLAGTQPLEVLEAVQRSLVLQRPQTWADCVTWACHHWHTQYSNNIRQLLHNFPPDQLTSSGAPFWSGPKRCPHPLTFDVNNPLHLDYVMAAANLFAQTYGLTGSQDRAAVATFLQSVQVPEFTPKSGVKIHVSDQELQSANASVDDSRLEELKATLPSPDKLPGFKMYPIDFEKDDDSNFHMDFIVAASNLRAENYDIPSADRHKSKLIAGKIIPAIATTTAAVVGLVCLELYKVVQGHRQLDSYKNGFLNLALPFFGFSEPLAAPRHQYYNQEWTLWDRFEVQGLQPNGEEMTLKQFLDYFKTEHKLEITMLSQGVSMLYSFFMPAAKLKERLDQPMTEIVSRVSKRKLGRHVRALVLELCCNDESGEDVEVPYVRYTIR
# UniProt P28289: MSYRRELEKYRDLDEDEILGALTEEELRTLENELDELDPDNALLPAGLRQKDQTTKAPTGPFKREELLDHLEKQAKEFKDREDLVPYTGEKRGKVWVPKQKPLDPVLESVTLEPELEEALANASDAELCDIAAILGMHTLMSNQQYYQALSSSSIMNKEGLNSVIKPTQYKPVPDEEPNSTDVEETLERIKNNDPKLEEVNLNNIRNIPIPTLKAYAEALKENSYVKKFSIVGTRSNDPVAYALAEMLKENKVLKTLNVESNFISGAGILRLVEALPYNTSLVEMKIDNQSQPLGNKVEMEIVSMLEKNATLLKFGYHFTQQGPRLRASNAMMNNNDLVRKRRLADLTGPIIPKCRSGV
# UniProt P21127: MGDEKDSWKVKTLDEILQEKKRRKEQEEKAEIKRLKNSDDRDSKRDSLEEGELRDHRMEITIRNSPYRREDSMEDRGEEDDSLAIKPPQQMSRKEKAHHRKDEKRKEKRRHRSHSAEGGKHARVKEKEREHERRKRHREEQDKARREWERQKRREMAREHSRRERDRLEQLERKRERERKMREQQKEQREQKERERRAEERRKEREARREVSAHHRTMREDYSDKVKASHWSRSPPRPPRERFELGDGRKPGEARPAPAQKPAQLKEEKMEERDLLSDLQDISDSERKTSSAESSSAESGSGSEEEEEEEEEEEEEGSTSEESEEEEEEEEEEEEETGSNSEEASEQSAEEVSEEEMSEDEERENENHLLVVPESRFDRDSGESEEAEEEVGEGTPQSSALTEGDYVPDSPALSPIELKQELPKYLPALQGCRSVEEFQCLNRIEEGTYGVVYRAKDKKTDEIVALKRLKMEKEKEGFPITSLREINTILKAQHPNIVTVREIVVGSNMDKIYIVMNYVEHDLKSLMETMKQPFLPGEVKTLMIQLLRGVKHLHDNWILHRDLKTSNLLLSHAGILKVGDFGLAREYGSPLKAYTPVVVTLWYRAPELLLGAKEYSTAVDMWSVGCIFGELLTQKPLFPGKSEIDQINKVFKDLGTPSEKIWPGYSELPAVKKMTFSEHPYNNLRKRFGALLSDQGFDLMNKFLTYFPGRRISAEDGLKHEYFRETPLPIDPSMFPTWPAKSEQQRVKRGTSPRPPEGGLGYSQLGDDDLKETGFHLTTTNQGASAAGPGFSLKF
# The list shows a part of the results. Small differences around the control level are noise.
# Compound: CN[C@@H]1C[C@H]2O[C@@](C)([C@@H]1OC)n1c3ccccc3c3c4c(c5c6ccccc6n2c5c31)C(=O)NC4 [staurosporine]
# Experiment: log2 fold change of tryptic peptide abundance, ligand vs vehicle (limited proteolysis) (log2 ratio); higher = more trypsin-susceptible (destabilized)
# Conditions: ligand concentration: 20 uM; sample: K562 cleared lysate; digestion: 4 min, 22 C (HT-PELSA RT4min, Orbitrap Astral)
row,Target,log2 fold change
1,"FOSL1 (peptide sequence: ALGPPPGVR, peptide start residue: 85) (UniProt P15407)",-0.175
2,"UniProt P20823 (peptide sequence: VYNWFANR, peptide start residue: 326)",-0.16
3,"CAST (peptide sequence: DKLGERDDTIPPEYR, peptide start residue: 605) (UniProt P20810)",-0.289
4,"ATF3 (peptide sequence: NLFIQQIK, peptide start residue: 168) (UniProt P18847)",-0.119
5,"LIG1 (peptide sequence: LMLPPPPLTASGVFSK, peptide start residue: 392) (UniProt P18858)",-0.153
6,"ANK1 (peptide sequence: EGHVETVLALLEKEASQACMTK, peptide start residue: 513) (UniProt P16157)",0.326
7,"H2AFX (peptide sequence: KATQASQEY, peptide start residue: 135) (UniProt P16104)",-0.0717
8,"ETS1 (peptide sequence: AAVDLKPTLTIIK, peptide start residue: 3) (UniProt P14921)",-0.381
9,"TCF4 (peptide sequence: MVQLHLK, peptide start residue: 590) (UniProt P15884)",0.443
10,"CREB1 (peptide sequence: ILNDLSSDAPGVPR, peptide start residue: 123) (UniProt P16220)",0.233
11,"UBA1 (peptide sequence: LAGTQPLEVLEAVQR, peptide start residue: 679) (UniProt P22314)",0.146
12,"PSMB4 (peptide sequence: MEAFLGSR, peptide start residue: 1) (UniProt P28070)",-0.149
13,"DNAJB1 (peptide sequence: EGDQTSNNIPADIVFVLK, peptide start residue: 223) (UniProt P25685)",-0.149
14,"JAK1 (peptide sequence: MQLPELPK, peptide start residue: 206) (UniProt P23458)",0.422
15,"GOT1 (peptide sequence: LALGDDSPALK, peptide start residue: 87) (UniProt P17174)",0.346
16,"TMOD1 (peptide sequence: EFKDREDLVPYTGEK, peptide start residue: 77) (UniProt P28289)",0.322
17,"GNS (peptide sequence: TPGVFDPGYR, peptide start residue: 520) (UniProt P15586)",-0.513
18,"MDK (peptide sequence: YNAQCQETIR, peptide start residue: 112) (UniProt P21741)",-0.177
19,"UniProt P20807 (peptide sequence: GKTSPDKQK, peptide start residue: 626)",-0.0723
20,"ACADS (peptide sequence: AEGDSWVLNGTK, peptide start residue: 172) (UniProt P16219)",-0.242
21,"UniProt P21127 (peptide sequence: SEIDQINK, peptide start residue: 642)",-0.492
22,"RPL17 (peptide sequence: EQIVPKPEEEVAQKK, peptide start residue: 154) (UniProt P18621)",-0.142
23,"RCC1 (peptide sequence: SGQVYSFGCNDEGALGR, peptide start residue: 85) (UniProt P18754)",-0.289
24,"TCEA1 (peptide sequence: LLDGPSTEKDLDEKK, peptide start residue: 76) (UniProt P23193)",-0.264
25,"UniProt P16989 (peptide sequence: VLATKVLGTVKWFNVR, peptide start residue: 86)",0.726
26,"HIST1H1D (peptide sequence: KPATAAGTKK, peptide start residue: 161) (UniProt P16402)",0.263
27,"ERCC3 (peptide sequence: QVDESGTKVDEYGAK, peptide start residue: 45) (UniProt P19447)",0.377
28,"LCP1 (peptide sequence: NWMNSLGVNPR, peptide start residue: 402) (UniProt P13796)",0.446

# Another view of part of the listing above:
row | Target | log2 fold change
1 | FOSL1 (peptide sequence: ALGPPPGVR, peptide start residue: 85) (UniProt P15407) | -0.175
13 | DNAJB1 (peptide sequence: EGDQTSNNIPADIVFVLK, peptide start residue: 223) (UniProt P25685) | -0.149
